Results on 1 molecule are retold here after PMC11706664, “Structure of WzxE the lipid III flippase for Enterobacterial Common Antigen polysaccharide” (Open Biology, 2025).

Results are given in words; binding and its absence hold for the method and conditions named.

The experiment addresses WzxE, the lipid III flippase from Escherichia coli (E. coli K-12 MG1655) (UniProt P0AAA7). The experiment is described as follows: crystal structure; WzxE-Nb10 complex crystallized in lipidic cubic phase (monoolein:ECP) at 20°C; outward-facing conformation (PDB 9G95, 9G97); both purified.

B1: WzxE, the lipid III flippase from Escherichia coli (protein, UniProt P0AAA7 1-416)
chain: MVSLAKASLWTAASTLVKIGAGLLVGKLLAVSFGPAGLGLAANFRQLITVLGVLAGAGIFNGVTKYVAQYHDNPQQLRRVVGTSSAMVLGFSTLMALVFVLAAAPISQGLFGNTDYQGLVRLVALVQMGIAWGNLLLALMKGFRDAAGNALSLIVGSLIGVLAYYVSYRLGGYEGALLGLALIPALVVIPAAIMLIKRGVIPLSYLKPSWDNGLAGQLSKFTLMALITSVTLPVAYIMMRKLLAAQYSWDEVGIWQGVSSISDAYLQFITASFSVYLLPTLSRLTEKRDITREVVKSLKFVLPAVAAASFTVWLLRDFAIWLLLSNKFTAMRDLFAWQLVGDVLKVGAYVFGYLVIAKASLRFYILAEVSQFTLLMVFAHWLIPAHGALGAAQAYMATYIVYFSLCCGVFLLWRRRA
Take B1: the binding result was “no binding”.
